Data as given in paper PMC12681378, “Transcriptomic and enzymological evidence for plastid peptidoglycan synthesis in the gymnosperm Picea abies” (The Plant Journal, 2025).
No constants are given. Whether binding was seen depends on the method and setting. Binding seen in cells or lysates may run through a third protein. A yes stands for co-enrichment or nearness to the bait. Other partners may have been found. Where a sequence is shown, tags or fusion partners need not be part of it. Blank lines part the entries; values can stand above or below the binder they belong to.

Biological target: T1, Larix gmelinii MurE without the transit peptide (LgMurE-TP), with the SATD (Larix gmelinii)
T1 sequence: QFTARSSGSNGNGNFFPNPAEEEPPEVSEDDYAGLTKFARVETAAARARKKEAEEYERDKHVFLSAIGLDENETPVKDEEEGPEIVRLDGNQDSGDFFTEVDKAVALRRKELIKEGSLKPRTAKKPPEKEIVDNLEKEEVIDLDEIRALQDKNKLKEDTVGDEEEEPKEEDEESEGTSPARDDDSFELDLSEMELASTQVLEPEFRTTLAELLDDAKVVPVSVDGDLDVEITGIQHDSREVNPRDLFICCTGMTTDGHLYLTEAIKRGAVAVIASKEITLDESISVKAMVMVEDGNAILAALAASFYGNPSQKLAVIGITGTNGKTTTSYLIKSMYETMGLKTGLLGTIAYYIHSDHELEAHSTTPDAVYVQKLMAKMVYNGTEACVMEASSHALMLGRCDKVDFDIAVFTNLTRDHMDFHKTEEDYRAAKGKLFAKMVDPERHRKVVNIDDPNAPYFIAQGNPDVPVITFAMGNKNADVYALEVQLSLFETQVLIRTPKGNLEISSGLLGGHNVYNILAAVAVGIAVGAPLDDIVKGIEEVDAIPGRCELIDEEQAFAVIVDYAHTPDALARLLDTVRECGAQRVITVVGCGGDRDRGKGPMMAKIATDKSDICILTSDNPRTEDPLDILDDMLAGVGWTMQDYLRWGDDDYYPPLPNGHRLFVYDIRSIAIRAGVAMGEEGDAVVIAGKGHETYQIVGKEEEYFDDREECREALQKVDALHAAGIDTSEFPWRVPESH
Test: affinity purification with mass spectrometry; His-tagged MurE with SATD expressed in the heterologous host (especially E. coli) and purified on Ni resin; copurifying bands cut from SDS-PAGE gels and identified by LC-MS

binding: binds
B1: bifunctional polymyxin resistance protein ArnA (enzyme, UniProt P77398 1-660)
chain: MKTVVFAYHDMGCLGIEALLAAGYEISAIFTHTDNPGEKAFYGSVARLAAERGIPVYAPDNVNHPLWVERIAQLSPDVIFSFYYRHLIYDEILQLAPAGAFNLHGSLLPKYRGRAPLNWVLVNGETETGVTLHRMVKRADAGAIVAQLRIAIAPDDIAITLHHKLCHAARQLLEQTLPAIKHGNILEIAQRENEATCFGRRTPDDSFLEWHKPASVLHNMVRAVADPWPGAFSYVGNQKFTVWSSRVHPHASKAQPGSVISVAPLLIACGDGALEIVTGQAGDGITMQGSQLAQTLGLVQGSRLNSQPACTARRRTRVLILGVNGFIGNHLTERLLREDHYEVYGLDIGSDAISRFLNHPHFHFVEGDISIHSEWIEYHVKKCDVVLPLVAIATPIEYTRNPLRVFELDFEENLRIIRYCVKYRKRIIFPSTSEVYGMCSDKYFDEDHSNLIVGPVNKPRWIYSVSKQLLDRVIWAYGEKEGLQFTLFRPFNWMGPRLDNLNAARIGSSRAITQLILNLVEGSPIKLIDGGKQKRCFTDIRDGIEALYRIIENAGNRCDGEIINIGNPENEASIEELGEMLLASFEKHPLRHHFPPFAGFRVVESSSYYGKGYQDVEHRKPSIRNAHRCLDWEPKIDMQETIDETLDFFLRTVDLTDKPS

binding: binds
B2: glucosamine-6-phosphate synthase GlmS (enzyme, UniProt P17169 1-609)
chain: MCGIVGAIAQRDVAEILLEGLRRLEYRGYDSAGLAVVDAEGHMTRLRRLGKVQMLAQAAEEHPLHGGTGIAHTRWATHGEPSEVNAHPHVSEHIVVVHNGIIENHEPLREELKARGYTFVSETDTEVIAHLVNWELKQGGTLREAVLRAIPQLRGAYGTVIMDSRHPDTLLAARSGSPLVIGLGMGENFIASDQLALLPVTRRFIFLEEGDIAEITRRSVNIFDKTGAEVKRQDIESNLQYDAGDKGIYRHYMQKEIYEQPNAIKNTLTGRISHGQVDLSELGPNADELLSKVEHIQILACGTSYNSGMVSRYWFESLAGIPCDVEIASEFRYRKSAVRRNSLMITLSQSGETADTLAGLRLSKELGYLGSLAICNVPGSSLVRESDLALMTNAGTEIGVASTKAFTTQLTVLLMLVAKLSRLKGLDASIEHDIVHGLQALPSRIEQMLSQDKRIEALAEDFSDKHHALFLGRGDQYPIALEGALKLKEISYIHAEAYAAGELKHGPLALIDADMPVIVVAPNNELLEKLKSNIEEVRARGGQLYVFADQDAGFVSSDNMHIIEMPHVEEVIAPIFYTVPLQLLAYHVALIKGTDVDQPRNLAKSVTVE
